Results as given in article PMC11609542.
No constants are given. Whether binding was seen depends on the method and setting. In cells and extracts the contact can be indirect. A yes stands for co-enrichment or nearness to the bait. Other partners may have been found.

Chains of the proteins cited; added tags and fusions are not shown. Residues count along the entry.
UniProt Q16531: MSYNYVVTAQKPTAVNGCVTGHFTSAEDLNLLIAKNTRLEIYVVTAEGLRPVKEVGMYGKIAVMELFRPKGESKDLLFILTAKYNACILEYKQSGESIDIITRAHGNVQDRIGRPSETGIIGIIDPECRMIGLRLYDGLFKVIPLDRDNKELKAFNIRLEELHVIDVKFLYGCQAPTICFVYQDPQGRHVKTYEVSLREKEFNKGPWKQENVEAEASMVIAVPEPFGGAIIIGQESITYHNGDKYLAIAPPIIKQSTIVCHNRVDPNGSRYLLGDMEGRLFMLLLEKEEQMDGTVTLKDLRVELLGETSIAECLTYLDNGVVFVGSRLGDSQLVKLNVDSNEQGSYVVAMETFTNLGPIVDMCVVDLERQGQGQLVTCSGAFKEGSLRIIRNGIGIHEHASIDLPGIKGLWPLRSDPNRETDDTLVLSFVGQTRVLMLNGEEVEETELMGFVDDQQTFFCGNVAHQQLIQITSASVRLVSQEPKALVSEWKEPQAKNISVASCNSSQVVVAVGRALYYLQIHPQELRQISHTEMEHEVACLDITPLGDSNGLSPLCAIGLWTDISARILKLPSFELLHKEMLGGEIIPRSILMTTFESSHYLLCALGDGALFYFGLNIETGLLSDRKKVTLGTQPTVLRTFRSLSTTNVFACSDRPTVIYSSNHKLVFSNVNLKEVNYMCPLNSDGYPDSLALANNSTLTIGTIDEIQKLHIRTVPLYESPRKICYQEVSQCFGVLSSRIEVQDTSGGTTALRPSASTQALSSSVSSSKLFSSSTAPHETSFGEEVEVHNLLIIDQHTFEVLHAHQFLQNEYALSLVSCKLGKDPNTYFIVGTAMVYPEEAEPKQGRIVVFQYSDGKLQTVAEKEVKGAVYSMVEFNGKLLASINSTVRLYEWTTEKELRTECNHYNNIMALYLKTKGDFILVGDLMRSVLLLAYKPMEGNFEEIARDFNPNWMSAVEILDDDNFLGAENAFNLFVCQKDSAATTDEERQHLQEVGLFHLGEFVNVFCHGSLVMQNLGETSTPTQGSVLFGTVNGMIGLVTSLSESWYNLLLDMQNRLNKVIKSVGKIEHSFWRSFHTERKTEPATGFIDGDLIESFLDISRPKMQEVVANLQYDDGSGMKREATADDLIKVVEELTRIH
UniProt Q13098: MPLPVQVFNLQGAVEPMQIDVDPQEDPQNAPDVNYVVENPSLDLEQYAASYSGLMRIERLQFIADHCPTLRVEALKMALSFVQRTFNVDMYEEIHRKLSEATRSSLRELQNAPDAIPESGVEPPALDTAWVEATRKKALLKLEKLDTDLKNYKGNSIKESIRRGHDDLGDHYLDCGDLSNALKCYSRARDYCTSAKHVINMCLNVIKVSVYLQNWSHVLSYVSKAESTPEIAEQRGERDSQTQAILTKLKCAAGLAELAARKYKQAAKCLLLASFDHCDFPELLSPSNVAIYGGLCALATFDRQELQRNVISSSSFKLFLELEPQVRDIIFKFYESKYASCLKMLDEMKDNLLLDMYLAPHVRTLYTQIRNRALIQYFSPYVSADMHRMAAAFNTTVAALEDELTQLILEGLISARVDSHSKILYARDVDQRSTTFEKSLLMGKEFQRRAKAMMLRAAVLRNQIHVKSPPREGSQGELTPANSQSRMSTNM
UniProt P40939, residues 37-763: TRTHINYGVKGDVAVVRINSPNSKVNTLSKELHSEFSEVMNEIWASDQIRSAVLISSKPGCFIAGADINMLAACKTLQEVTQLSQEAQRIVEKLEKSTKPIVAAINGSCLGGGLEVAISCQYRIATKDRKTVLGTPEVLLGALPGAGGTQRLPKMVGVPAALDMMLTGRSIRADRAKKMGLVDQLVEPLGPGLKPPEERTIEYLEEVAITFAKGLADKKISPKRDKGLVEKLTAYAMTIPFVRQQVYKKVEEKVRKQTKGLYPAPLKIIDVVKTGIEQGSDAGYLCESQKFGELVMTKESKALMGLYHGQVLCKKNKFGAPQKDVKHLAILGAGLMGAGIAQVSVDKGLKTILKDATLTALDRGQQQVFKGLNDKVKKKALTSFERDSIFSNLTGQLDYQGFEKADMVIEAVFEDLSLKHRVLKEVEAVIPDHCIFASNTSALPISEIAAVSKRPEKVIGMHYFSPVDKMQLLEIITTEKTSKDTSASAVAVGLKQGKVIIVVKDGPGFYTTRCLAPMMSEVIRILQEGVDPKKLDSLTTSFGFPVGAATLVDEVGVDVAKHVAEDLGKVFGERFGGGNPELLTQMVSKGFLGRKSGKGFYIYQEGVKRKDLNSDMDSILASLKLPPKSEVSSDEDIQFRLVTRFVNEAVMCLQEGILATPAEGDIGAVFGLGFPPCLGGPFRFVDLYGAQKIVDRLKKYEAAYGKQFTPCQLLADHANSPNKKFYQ
UniProt Q13620: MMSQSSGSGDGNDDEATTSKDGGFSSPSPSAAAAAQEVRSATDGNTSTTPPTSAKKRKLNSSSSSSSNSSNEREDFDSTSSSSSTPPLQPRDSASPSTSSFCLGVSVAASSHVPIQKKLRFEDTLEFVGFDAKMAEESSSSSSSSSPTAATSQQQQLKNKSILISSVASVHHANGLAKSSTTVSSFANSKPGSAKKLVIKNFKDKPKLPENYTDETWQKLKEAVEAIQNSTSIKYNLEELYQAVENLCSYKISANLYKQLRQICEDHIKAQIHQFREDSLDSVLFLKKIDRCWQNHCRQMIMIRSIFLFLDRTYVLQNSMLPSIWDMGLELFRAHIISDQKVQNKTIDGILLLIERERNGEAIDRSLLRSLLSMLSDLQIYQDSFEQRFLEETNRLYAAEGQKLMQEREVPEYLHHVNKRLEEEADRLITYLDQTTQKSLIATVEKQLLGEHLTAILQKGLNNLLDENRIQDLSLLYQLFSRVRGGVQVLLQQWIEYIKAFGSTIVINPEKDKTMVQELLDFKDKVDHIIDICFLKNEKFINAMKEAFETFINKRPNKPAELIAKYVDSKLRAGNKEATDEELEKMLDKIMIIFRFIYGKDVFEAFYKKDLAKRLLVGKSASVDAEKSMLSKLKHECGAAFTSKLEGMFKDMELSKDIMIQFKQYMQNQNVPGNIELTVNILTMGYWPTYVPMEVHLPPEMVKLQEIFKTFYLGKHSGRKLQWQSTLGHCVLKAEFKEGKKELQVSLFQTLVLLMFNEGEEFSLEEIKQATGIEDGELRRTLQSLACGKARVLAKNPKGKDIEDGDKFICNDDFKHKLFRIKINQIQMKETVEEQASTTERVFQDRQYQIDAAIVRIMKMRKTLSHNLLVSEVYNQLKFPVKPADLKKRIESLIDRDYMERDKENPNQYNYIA
UniProt Q8TEB1: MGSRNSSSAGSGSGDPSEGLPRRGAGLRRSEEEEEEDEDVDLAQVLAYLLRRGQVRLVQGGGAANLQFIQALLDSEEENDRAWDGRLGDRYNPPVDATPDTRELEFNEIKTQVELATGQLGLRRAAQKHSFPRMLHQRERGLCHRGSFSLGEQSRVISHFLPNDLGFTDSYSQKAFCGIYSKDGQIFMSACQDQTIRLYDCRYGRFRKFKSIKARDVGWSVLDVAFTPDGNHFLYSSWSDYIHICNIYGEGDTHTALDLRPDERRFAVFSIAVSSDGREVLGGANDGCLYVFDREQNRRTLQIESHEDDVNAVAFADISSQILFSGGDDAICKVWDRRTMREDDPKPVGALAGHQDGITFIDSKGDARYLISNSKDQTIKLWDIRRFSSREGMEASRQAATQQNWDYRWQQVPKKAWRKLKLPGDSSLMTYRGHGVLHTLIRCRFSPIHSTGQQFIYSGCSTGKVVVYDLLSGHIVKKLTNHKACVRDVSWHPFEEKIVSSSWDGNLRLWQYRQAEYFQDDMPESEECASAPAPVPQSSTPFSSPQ
UniProt Q08945: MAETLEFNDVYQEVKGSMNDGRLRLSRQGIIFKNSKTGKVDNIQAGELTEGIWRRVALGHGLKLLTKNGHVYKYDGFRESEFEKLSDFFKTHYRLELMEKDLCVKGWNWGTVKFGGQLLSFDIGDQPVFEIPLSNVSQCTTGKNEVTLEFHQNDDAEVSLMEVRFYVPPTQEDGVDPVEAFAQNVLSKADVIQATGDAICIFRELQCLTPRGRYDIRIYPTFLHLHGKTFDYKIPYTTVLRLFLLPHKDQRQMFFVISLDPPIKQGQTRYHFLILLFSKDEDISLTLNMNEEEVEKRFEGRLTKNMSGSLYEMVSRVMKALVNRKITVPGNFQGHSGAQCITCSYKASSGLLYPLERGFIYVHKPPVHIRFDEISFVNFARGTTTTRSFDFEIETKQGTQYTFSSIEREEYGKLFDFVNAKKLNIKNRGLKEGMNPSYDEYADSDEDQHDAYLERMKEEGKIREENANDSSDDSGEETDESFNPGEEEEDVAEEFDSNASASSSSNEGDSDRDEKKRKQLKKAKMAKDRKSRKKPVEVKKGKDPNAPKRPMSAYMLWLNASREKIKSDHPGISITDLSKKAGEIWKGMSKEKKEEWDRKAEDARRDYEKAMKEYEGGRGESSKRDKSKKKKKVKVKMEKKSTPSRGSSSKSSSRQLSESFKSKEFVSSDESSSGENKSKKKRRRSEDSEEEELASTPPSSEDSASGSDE
UniProt P27816: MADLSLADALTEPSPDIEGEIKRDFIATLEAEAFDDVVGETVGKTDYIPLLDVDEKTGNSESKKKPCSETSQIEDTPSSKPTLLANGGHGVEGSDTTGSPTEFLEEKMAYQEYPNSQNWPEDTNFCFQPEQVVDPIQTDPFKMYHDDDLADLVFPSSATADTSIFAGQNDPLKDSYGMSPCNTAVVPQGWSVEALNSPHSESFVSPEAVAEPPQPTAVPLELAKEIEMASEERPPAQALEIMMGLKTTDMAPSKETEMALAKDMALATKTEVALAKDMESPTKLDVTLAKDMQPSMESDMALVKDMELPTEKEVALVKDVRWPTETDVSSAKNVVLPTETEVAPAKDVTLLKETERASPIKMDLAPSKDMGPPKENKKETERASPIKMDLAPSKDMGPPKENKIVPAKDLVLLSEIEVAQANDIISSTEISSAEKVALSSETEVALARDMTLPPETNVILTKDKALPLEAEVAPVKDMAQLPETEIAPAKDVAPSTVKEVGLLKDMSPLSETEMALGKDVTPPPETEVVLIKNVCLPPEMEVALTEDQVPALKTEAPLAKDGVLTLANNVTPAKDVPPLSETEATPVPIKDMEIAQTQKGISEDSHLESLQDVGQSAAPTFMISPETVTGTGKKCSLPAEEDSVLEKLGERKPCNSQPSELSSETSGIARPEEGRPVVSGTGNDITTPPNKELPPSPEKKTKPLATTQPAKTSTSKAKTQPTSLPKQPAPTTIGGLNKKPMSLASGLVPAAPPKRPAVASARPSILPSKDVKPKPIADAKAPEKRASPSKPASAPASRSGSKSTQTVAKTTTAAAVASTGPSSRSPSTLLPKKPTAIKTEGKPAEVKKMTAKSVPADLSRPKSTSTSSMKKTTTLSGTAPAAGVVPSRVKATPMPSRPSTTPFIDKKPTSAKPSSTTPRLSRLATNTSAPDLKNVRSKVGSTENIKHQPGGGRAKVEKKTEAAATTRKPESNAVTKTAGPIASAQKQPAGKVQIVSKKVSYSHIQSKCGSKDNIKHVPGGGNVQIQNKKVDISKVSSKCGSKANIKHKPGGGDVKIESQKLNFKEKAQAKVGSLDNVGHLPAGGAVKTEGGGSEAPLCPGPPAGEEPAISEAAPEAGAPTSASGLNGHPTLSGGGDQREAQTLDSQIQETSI
UniProt P54652: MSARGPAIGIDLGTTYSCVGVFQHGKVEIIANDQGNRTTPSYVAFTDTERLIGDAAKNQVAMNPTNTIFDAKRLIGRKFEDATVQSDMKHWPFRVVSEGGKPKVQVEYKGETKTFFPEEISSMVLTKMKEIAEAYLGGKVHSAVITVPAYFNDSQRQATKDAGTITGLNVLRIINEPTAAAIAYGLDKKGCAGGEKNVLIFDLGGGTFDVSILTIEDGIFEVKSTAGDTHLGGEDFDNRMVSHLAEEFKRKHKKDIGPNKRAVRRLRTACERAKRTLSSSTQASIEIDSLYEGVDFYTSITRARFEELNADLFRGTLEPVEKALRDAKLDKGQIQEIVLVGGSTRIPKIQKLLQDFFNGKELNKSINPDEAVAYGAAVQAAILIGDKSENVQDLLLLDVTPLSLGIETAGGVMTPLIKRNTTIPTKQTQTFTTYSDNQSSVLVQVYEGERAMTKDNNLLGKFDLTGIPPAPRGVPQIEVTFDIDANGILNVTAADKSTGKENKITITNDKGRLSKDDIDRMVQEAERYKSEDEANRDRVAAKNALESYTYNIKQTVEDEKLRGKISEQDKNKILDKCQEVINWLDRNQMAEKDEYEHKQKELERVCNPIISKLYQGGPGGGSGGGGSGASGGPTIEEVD
UniProt Q9H9Q2: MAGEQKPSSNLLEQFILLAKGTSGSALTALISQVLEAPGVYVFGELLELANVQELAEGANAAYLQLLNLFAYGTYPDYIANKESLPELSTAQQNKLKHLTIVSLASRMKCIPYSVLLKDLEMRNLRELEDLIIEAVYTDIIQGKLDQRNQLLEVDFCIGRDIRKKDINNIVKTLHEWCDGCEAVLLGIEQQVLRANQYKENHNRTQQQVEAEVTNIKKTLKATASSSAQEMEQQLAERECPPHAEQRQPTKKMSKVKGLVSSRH

target: Strep-tagged DDB1 (human) (UniProt Q16531); experiment: affinity purification with mass spectrom

Substance | binding
COP9 signalosome subunit GPS1 (from UniProt Q13098 1-491) | binds
HADHA enzyme of the mitochondrial beta-oxidation pathway (from UniProt P40939 37-763) | binds
Cul4B (from UniProt Q13620 1-913) | binds

target: Strep-tagged DCAF11 (human) (UniProt Q8TEB1); experiment: affinity purification with mass spectrom

Substance | binding
STUB1 E3 ubiquitin ligase (from UniProt Q9UNE7 1-303) (enzyme) | binds
SSRP component of the FACT complex (from UniProt Q08945 1-709) | binds
COP9 signalosome subunit COPS5 (from UniProt Q92905 1-334) | binds
microtubule-associated protein MAP4 (from UniProt P27816 1-1152) | binds
COP9 signalosome subunit GPS1 (from UniProt Q13098 1-491) | binds
HSPA2 chaperone (from UniProt P54652 1-639) | binds
COP9 signalosome subunit COPS7B (from UniProt Q9H9Q2 1-264) | binds
